{"source": "patent US6291496A", "about": "“Treating cancers associated with overexpression of class I family of receptor tyrosine kinases” (priority 1999, dated 2001)", "format_in_all_cases": "in vivo, human", "key": {"[1]": {"system": "HER-2/neu positive breast cancer metastasized to lung and liver", "assay": "Example III: breast cancer metastasized to lung and liver", "conditions": "patient, oral 5 mg/kg twice daily", "protocol": "After three months, the PPARγ ligand administration is continued in combination regimen with Taxol® at a dose of 175 mg/m^2 administered intravenously every three weeks."}, "[2]": {"system": "non-small cell lung carcinoma where EGFR is overexpressed", "assay": "Example VI: non-small cell lung carcinoma metastasized to liver", "conditions": "patient, oral 5 mg/kg twice daily", "protocol": "After one month, PPARγ ligand administration is continued in combination with infusion of cisplatin every four weeks at 60 mg/m^2 for 12 more weeks."}, "[3]": {"system": "Stage IV EGFR positive breast cancer tumors", "assay": "Example VIII: breast cancer with Stage IV EGFR positive tumors", "conditions": "oral 5 mg/kg twice daily in combination with CETUXIMAB and Taxol"}, "[4]": {"system": "HER-2/neu positive colon cancer", "assay": "Example V: after resection of colon cancer", "conditions": "patient, oral 5 mg/kg twice daily for five years after resection"}, "[5]": {"system": "HER-2/neu positive breast cancer", "assay": "Example I: adjuvant therapy after mastectomy", "conditions": "patient, oral 5 mg/kg twice per day for five years after mastectomy"}, "[6]": {"system": "HER-2/neu positive breast cancer", "assay": "Example II: adjuvant therapy with PPARγ ligand and HERCEPTIN", "conditions": "patient, oral 5 mg/kg twice daily for one year, with HERCEPTIN 250 mg IV loading then 10 weekly doses of 125 mg"}, "[7]": {"system": "HER-2/neu positive breast cancer metastasized to bone", "assay": "Example IV: breast cancer metastasized to bone", "conditions": "patient after failure of prior chemotherapy, oral 5 mg/kg twice daily plus HERCEPTIN", "protocol": "After 90 days, oral cyclophosphamide at a dose of 3 mg/kg/day and doxorubicin administered intravenously weekly at a dose of 20 mg/m^2, are added to the drug regimen."}, "[8]": {"system": "head and neck carcinoma where EGFR is overexpressed", "assay": "Example VII: head and neck carcinoma", "conditions": "after the 12 weeks of CETUXIMAB and cisplatin, oral 5 mg/kg twice daily for 12 weeks", "protocol": "Concurrently cisplatin is infused every four weeks at 60 mg/m^2."}, "[9]": {"system": "EGFR positive breast cancer", "assay": "Example IX: adjuvant therapy after mastectomy", "conditions": "patient, oral 5 mg/kg twice daily for five years after mastectomy"}}, "note": "At least one structure is not confirmed: it was looked up by name or label, or the drawing left a doubt.", "data": [{"smiles": "Cc1oc(-c2ccccc2)nc1CCOc1ccc(C[C@H](Nc2ccccc2C(=O)c2ccccc2)C(=O)O)cc1", "note": "[structure (III), (2S)-((2-benzoylphenyl)amino)-3-{4-[2-(5-methyl-2-phenyloxazol-4-yl)ethoxy]phenyl}propionic acid]", "values": [{"measurement": "tumor burden", "setting": "[1]", "value": "reduced tumor burden"}, {"measurement": "tumor burden", "setting": "[2]", "value": "reduced tumor burden"}, {"measurement": "tumor burden", "setting": "[3]", "value": "reduced tumor burden"}, {"measurement": "recurrence of colon cancer", "setting": "[4]", "value": "Recurrence of colon cancer does not occur"}, {"measurement": "recurrence of breast cancer", "setting": "[5]", "value": "recurrence of breast cancer does not occur"}, {"measurement": "recurrence of breast cancer", "setting": "[6]", "value": "Recurrence of breast cancer does not occur"}, {"measurement": "tumor burden", "setting": "[7]", "value": "reduced tumor burden"}, {"measurement": "tumor burden", "setting": "[8]", "value": "further reduced tumor burden"}, {"measurement": "recurrence of breast cancer", "setting": "[9]", "value": "Recurrence of breast cancer dose not occur"}]}]}
